Laboratory results as given in article PMC7592008.

By UniProt entry, the sequences of proteins in these tests, tags left out.
UniProt P40763, whole entry: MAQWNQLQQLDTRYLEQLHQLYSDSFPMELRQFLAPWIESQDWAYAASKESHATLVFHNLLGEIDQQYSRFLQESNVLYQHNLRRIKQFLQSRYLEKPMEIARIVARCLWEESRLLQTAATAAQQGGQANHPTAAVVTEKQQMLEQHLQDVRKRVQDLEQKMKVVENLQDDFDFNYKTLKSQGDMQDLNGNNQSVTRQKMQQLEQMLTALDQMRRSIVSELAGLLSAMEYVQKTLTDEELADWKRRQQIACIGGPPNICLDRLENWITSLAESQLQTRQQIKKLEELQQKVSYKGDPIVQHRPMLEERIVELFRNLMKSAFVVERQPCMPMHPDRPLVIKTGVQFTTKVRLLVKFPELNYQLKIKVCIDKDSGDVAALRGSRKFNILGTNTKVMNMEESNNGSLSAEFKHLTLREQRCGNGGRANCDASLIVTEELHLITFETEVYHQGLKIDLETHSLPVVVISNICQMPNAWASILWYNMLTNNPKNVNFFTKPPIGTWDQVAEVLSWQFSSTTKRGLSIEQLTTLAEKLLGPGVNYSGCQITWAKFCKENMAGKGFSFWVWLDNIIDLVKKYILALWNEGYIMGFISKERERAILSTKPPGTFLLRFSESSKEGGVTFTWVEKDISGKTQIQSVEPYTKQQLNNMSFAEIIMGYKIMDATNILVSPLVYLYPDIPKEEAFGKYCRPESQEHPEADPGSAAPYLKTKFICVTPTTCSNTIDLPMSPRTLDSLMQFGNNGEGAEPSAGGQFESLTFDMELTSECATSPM

Target: STAT3 (UniProt P40763)
Assay: EMSA supershift
Settings: anti-STAT3 antibody, nuclear extract, room temperature; nuclear extract with biotin-labeled probe, 20 min at room temperature, 4% native polyacrylamide gel; salt and pH not stated; protein in an extract; label: biotin

“AGCGCAGGTGCCCTCTGGCCGGGAAGTACTTCACCAT (double strand) [MLAA-34 promoter STAT3 probe (wt)]”: binds.

Construct, isoform or probe ends are uncertain for at least one entry. At least one result comes from cells or an extract, where the contact may be indirect.
